According to the supplement of paper PMC4604168 (melanoma cell lines):
The other results are listed elsewhere or left out. Single values are uncertain, as repeats are few or missing.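 The apoptosis fraction was the count of cleaved-PARP antibody-stained nuclei relative to all DNA-stained nuclei, imaged in 1,536-well plates. Screening doses were set so most cells survived, and baseline and induced cleaved-PARP levels vary greatly across cell lines.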

The compounds below were run on CBRC008 (line from a melanoma biopsy) (assay: cleaved PARP positive nuclei fraction relative to DMSO control; melanoma cells; higher = more apoptosis). Details: library dose: low library concentration; 72 h.

Row | SMILES | cleaved PARP positive nuclei fraction [%]
1 | O=C(/C=C/c1cccnc1)NCCCCC1CCN(C(=O)c2ccccc2)CC1 + CC1(C)NC(=O)N(c2ccc([N+](=O)[O-])c(C(F)(F)F)c2)C1=O [nilutamide] (first compound 0.01 µM, partner dose 1 µM) | 1980
2 | Cc1ccc(Nc2nccc(N(C)c3ccc4c(C)n(C)nc4c3)n2)cc1S(N)(=O)=O [Pazopanib] + C[C@@H]1CCN(C(=O)CC#N)C[C@@H]1N(C)c1ncnc2[nH]ccc12 [CP690550] (first compound 0.4 µM, partner dose 1 µM) | 49.5
3 | O=C(Nc1cc(C(F)(F)F)cc(C(F)(F)F)c1)c1cc(Cl)ccc1O + Cc1cc(N2CCOCC2)cc2[nH]c(-c3c(NC[C@@H](O)c4cccc(Cl)c4)cc[nH]c3=O)nc12 [BMS536924] (first compound 0.016 µM, partner dose 0.2 µM) | 302
4 | Cc1cn(-c2cc(NC(=O)c3ccc(C)c(Nc4nccc(-c5cccnc5)n4)c3)cc(C(F)(F)F)c2)cn1 [nilotinib] + CO[C@@H]1[C@H](N(C)C(=O)c2ccccc2)C[C@H]2O[C@]1(C)n1c3ccccc3c3c4c(c5c6ccccc6n2c5c31)C(=O)NC4 [Midostaurin] (first compound 0.2 µM, partner dose 0.08 µM) | 89.1
5 | O=C(Nc1cc(C(F)(F)F)cc(C(F)(F)F)c1)c1cc(Cl)ccc1O + NC(=O)Nc1cc(-c2cccc(F)c2)sc1C(=O)N[C@H]1CCCNC1 [AZD7762] (first compound 0.016 µM, partner dose 0.02 µM) | 49.1
6 | Cc1ccc(Nc2nccc(N(C)c3ccc4c(C)n(C)nc4c3)n2)cc1S(N)(=O)=O [Pazopanib] + COc1cc2c(Oc3ccc4[nH]c(C)cc4c3F)ncnc2cc1OCCCN1CCCC1 [cediranib] (first compound 0.4 µM, partner dose 0.4 µM) | 47.1
7 | Cc1cn(-c2cc(NC(=O)c3ccc(C)c(Nc4nccc(-c5cccnc5)n4)c3)cc(C(F)(F)F)c2)cn1 [nilotinib] + Cc1cc(N2CCOCC2)cc2[nH]c(-c3c(NC[C@@H](O)c4cccc(Cl)c4)cc[nH]c3=O)nc12 [BMS536924] (first compound 0.2 µM, partner dose 0.2 µM) | 356
8 | O=c1[nH]nc(Sc2ncc([N+](=O)[O-])s2)n1-c1ccc2c(c1)OCCO2 + O=C(Nc1cccc(Cl)c1)Nc1ncc(CCNc2ncnc3ccsc23)s1 [SNS314] (first compound 0.2 µM, partner dose 0.0008 µM) | 156
9 | Cc1ccc(Nc2nccc(N(C)c3ccc4c(C)n(C)nc4c3)n2)cc1S(N)(=O)=O [Pazopanib] + Cc1cc(N2CCOCC2)cc2[nH]c(-c3c(NC[C@@H](O)c4cccc(Cl)c4)cc[nH]c3=O)nc12 [BMS536924] (first compound 0.4 µM, partner dose 0.2 µM) | 143
10 | COc1cc([C@@H]2c3cc4c(cc3[C@@H](O[C@@H]3O[C@@H]5CO[C@@H](C)O[C@H]5[C@H](O)[C@H]3O)[C@H]3COC(=O)[C@H]23)OCO4)cc(OC)c1O [etoposide] + C[C@@H]1CCN(C(=O)CC#N)C[C@@H]1N(C)c1ncnc2[nH]ccc12 [CP690550] (first compound 0.02 µM, partner dose 1 µM) | 37.3
11 | Cc1cc(Nc2cc(N3CCN(C)CC3)nc(Sc3ccc(NC(=O)C4CC4)cc3)n2)n[nH]1 [Tozasertib] + CN(C)S(=O)(=O)c1ccc2c(c1)/C(=C/c1cc3c([nH]1)CCCC3)C(=O)N2 [SU6656] (first compound 0.006 µM, partner dose 0.4 µM) | 188
12 | O=C(/C=C/c1cccnc1)NCCCCC1CCN(C(=O)c2ccccc2)CC1 + CN(NC(=O)CC(=O)NN(C)C(=S)c1ccccc1)C(=S)c1ccccc1 [STA4783] (first compound 0.01 µM, partner dose 0.006 µM) | 4440
13 | O=C(Nc1cc(C(F)(F)F)cc(C(F)(F)F)c1)c1cc(Cl)ccc1O + CN(NC(=O)CC(=O)NN(C)C(=S)c1ccccc1)C(=S)c1ccccc1 [STA4783] (first compound 0.016 µM, partner dose 0.006 µM) | 1690
14 | COc1cc([C@@H]2c3cc4c(cc3[C@@H](O[C@@H]3O[C@@H]5CO[C@@H](C)O[C@H]5[C@H](O)[C@H]3O)[C@H]3COC(=O)[C@H]23)OCO4)cc(OC)c1O [etoposide] + NC(=O)Nc1cc(-c2cccc(F)c2)sc1C(=O)N[C@H]1CCCNC1 [AZD7762] (first compound 0.02 µM, partner dose 0.02 µM) | 191
15 | CCCCCCCCCCCCCCCCCCOP(=O)([O-])OC1CC[N+](C)(C)CC1 [Perifosine] + NCC(=O)Nc1ccc(-n2nc(C(F)(F)F)cc2-c2ccc3c(ccc4ccccc43)c2)cc1 [OSU03012] (first compound 0.4 µM, partner dose 1 µM) | 170
16 | CCCCCCCCCCCCCCCCCCOP(=O)([O-])OC1CC[N+](C)(C)CC1 [Perifosine] + O=C(Nc1cccc(Cl)c1)Nc1ncc(CCNc2ncnc3ccsc23)s1 [SNS314] (first compound 0.4 µM, partner dose 0.0008 µM) | 71.6
17 | O=C(/C=C/c1cccnc1)NCCCCC1CCN(C(=O)c2ccccc2)CC1 + Cc1cc(N2CCOCC2)cc2[nH]c(-c3c(NC[C@@H](O)c4cccc(Cl)c4)cc[nH]c3=O)nc12 [BMS536924] (first compound 0.01 µM, partner dose 0.2 µM) | 1690
18 | COc1cc([C@@H]2c3cc4c(cc3[C@@H](O[C@@H]3O[C@@H]5CO[C@@H](C)O[C@H]5[C@H](O)[C@H]3O)[C@H]3COC(=O)[C@H]23)OCO4)cc(OC)c1O [etoposide] + OCCn1cc(-c2cnc3nnn(Cc4ccc5ncccc5c4)c3n2)cn1 [PF04217903] (first compound 0.02 µM, partner dose 1 µM) | 153
19 | COc1cc([C@@H]2c3cc4c(cc3[C@@H](O[C@@H]3O[C@@H]5CO[C@@H](C)O[C@H]5[C@H](O)[C@H]3O)[C@H]3COC(=O)[C@H]23)OCO4)cc(OC)c1O [etoposide] + Cc1cc(N2CCOCC2)cc2[nH]c(-c3c(NC[C@@H](O)c4cccc(Cl)c4)cc[nH]c3=O)nc12 [BMS536924] (first compound 0.02 µM, partner dose 0.2 µM) | 264
20 | O=c1[nH]nc(Sc2ncc([N+](=O)[O-])s2)n1-c1ccc2c(c1)OCCO2 + O=C(CCCCCCC(=O)Nc1ccccc1)NO [vorinostat] (first compound 0.2 µM, partner dose 0.08 µM) | 54.9
21 | Cc1ccc(Nc2nccc(N(C)c3ccc4c(C)n(C)nc4c3)n2)cc1S(N)(=O)=O [Pazopanib] + CO[C@@H]1[C@H](N(C)C(=O)c2ccccc2)C[C@H]2O[C@]1(C)n1c3ccccc3c3c4c(c5c6ccccc6n2c5c31)C(=O)NC4 [Midostaurin] (first compound 0.4 µM, partner dose 0.08 µM) | 148
22 | N#CC[C@H](C1CCCC1)n1cc(-c2ncnc3[nH]ccc23)cn1 [ruxolitinib] + Cc1cc(N2CCOCC2)cc2[nH]c(-c3c(NC[C@@H](O)c4cccc(Cl)c4)cc[nH]c3=O)nc12 [BMS536924] (first compound 1 µM, partner dose 0.2 µM) | 397
23 | COc1cc([C@@H]2c3cc4c(cc3[C@@H](O[C@@H]3O[C@@H]5CO[C@@H](C)O[C@H]5[C@H](O)[C@H]3O)[C@H]3COC(=O)[C@H]23)OCO4)cc(OC)c1O [etoposide] + CO[C@@H]1[C@H](N(C)C(=O)c2ccccc2)C[C@H]2O[C@]1(C)n1c3ccccc3c3c4c(c5c6ccccc6n2c5c31)C(=O)NC4 [Midostaurin] (first compound 0.02 µM, partner dose 0.08 µM) | 132
24 | COc1cc([C@@H]2c3cc4c(cc3[C@@H](O[C@@H]3O[C@@H]5CO[C@@H](C)O[C@H]5[C@H](O)[C@H]3O)[C@H]3COC(=O)[C@H]23)OCO4)cc(OC)c1O [etoposide] + O=C(Nc1cccc(Cl)c1)Nc1ncc(CCNc2ncnc3ccsc23)s1 [SNS314] (first compound 0.02 µM, partner dose 0.0008 µM) | 36.6
25 | CCCCCCCCCCCCCCCCCCOP(=O)([O-])OC1CC[N+](C)(C)CC1 [Perifosine] + NC(=O)Nc1cc(-c2cccc(F)c2)sc1C(=O)N[C@H]1CCCNC1 [AZD7762] (first compound 0.4 µM, partner dose 0.02 µM) | 157
26 | O=C(/C=C/c1cccnc1)NCCCCC1CCN(C(=O)c2ccccc2)CC1 + CO[C@@H]1[C@H](N(C)C(=O)c2ccccc2)C[C@H]2O[C@]1(C)n1c3ccccc3c3c4c(c5c6ccccc6n2c5c31)C(=O)NC4 [Midostaurin] (first compound 0.01 µM, partner dose 0.08 µM) | 3610
27 | CC[C@]1(O)C[C@H]2CN(CCc3c([nH]c4ccccc34)[C@@](C(=O)OC)(c3cc4c(cc3OC)N(C=O)[C@H]3[C@@](O)(C(=O)OC)[C@H](OC(C)=O)[C@]5(CC)C=CCN6CC[C@]43[C@@H]65)C2)C1 [vincristine] + CN(C)S(=O)(=O)c1ccc2c(c1)/C(=C/c1cc3c([nH]1)CCCC3)C(=O)N2 [SU6656] (first compound 0.0001 µM, partner dose 0.4 µM) | 960

Copied from the list.
For cleaved PARP positive nuclei fraction [%], CC[C@]1(O)C[C@H]2CN(CCc3c([nH]c4ccccc34)[C@@](C(=O)OC)(c3cc4c(cc3OC)N(C=O)[C@H]3[C@@](O)(C(=O)OC)[C@H](OC(C)=O)[C@]5(CC)C=CCN6CC[C@]43[C@@H]65)C2)C1 [vincristine] + CN(C)S(=O)(=O)c1ccc2c(c1)/C(=C/c1cc3c([nH]1)CCCC3)C(=O)N2 [SU6656] (first compound 0.0001 µM, partner dose 0.4 µM) is entered as 960
For cleaved PARP positive nuclei fraction [%], O=c1[nH]nc(Sc2ncc([N+](=O)[O-])s2)n1-c1ccc2c(c1)OCCO2 + O=C(Nc1cccc(Cl)c1)Nc1ncc(CCNc2ncnc3ccsc23)s1 [SNS314] (first compound 0.2 µM, partner dose 0.0008 µM) is entered as 156
